Measured values reported in US20140162950A1.
No constants are given. Whether binding was seen depends on the method and setting. In cells and extracts the contact can be indirect. Some binding calls cover weakened binding; strength is not graded here.

Protein sequences, listed by entry. Tags and fused reporters are not part of them. Lines headed by an entry give the natural chain unless they say otherwise; changes in a name come on top.
UniProt P05556: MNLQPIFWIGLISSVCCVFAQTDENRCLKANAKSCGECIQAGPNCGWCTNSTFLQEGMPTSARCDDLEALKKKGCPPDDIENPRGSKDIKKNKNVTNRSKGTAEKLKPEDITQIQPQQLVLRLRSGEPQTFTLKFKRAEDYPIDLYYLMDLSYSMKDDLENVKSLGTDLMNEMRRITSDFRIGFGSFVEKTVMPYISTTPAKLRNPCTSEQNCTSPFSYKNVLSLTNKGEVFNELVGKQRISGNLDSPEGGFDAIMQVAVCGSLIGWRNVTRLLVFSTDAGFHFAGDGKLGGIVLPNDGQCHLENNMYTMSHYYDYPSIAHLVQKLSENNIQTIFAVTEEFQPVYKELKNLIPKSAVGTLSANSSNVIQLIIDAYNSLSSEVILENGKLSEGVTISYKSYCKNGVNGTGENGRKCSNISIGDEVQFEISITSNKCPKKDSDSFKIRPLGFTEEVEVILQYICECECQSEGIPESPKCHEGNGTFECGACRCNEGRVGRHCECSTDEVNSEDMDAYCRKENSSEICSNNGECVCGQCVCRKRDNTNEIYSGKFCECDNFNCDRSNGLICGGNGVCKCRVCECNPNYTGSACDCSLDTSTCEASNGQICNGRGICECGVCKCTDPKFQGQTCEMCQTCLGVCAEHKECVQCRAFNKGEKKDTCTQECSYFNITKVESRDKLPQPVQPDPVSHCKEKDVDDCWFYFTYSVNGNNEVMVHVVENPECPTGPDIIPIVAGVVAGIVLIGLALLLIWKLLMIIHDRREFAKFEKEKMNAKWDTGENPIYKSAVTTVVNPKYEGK
UniProt P29279: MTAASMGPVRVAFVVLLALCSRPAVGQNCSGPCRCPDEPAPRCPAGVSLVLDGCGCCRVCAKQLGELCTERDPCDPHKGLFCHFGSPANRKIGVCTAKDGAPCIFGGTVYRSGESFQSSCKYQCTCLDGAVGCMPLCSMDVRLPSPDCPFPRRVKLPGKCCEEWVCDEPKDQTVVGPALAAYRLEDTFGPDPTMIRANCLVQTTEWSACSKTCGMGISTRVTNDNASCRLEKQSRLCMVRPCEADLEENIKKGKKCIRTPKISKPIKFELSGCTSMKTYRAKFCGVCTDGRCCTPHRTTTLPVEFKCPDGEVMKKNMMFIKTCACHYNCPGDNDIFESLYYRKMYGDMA

Key:
[1] = biological target: T1, integrin α3β1 on gastric cancer cells (MKN45, MKN45/CTGF, AGS) (human) (UniProt P26006+P05556); assay: co-immunoprecipitation
[2] = biological target: T1, integrin α3β1 on gastric cancer cells (MKN45, MKN45/CTGF, AGS) (human); assay: conclusion from co-immunoprecipitation and adhesion blocking assays
[3] = biological target: T2, integrin α3 subunit (endogenous, from MKN45/CTGF total cell lysate) (human) (UniProt P26006); assay: co-immunoprecipitation: IP with integrin α3 antibody, detection with CTGF antibody
T2 sequence (looked up): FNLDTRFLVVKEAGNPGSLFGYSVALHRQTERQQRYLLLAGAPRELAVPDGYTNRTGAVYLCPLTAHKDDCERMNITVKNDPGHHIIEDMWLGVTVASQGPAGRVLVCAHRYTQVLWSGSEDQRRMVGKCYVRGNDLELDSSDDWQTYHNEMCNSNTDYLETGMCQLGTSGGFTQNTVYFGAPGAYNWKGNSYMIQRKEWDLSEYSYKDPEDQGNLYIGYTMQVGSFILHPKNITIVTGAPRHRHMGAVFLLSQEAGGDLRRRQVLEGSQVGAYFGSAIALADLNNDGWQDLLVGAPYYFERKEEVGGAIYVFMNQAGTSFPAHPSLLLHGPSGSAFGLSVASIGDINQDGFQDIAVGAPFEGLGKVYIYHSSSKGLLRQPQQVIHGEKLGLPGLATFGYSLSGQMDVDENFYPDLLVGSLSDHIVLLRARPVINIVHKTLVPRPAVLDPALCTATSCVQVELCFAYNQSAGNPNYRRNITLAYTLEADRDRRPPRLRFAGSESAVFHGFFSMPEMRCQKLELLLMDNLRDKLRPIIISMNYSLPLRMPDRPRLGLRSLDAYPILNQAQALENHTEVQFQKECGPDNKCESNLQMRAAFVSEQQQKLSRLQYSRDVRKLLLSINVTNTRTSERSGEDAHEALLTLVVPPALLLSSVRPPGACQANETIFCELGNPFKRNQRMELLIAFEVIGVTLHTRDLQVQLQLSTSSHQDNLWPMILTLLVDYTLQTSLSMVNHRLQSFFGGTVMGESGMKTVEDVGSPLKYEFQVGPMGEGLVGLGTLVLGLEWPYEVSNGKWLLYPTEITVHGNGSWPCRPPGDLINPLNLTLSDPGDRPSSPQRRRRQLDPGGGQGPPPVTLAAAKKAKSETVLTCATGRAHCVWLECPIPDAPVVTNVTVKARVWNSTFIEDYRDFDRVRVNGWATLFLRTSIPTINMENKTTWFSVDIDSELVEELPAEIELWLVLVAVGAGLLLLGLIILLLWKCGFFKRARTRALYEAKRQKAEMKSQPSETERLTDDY

[4] = biological target: T2, integrin α3 subunit (endogenous, from MKN45/CTGF total cell lysate) (human); assay: co-immunoprecipitation from MKN45/CTGF total cell lysate with anti-integrin α3 monoclonal antibody, western blot with anti-CTGF polyclonal antibody

Measured: binding

connective tissue growth factor (CTGF) native protein, over-expressed from full-length cDNA in MKN45/CTGF cells (from UniProt P29279 27-349) (ligand)
binds: all assays above
